Here are results for 43 molecules from the supplement of paper PMC9135407.

Several values for one entry are separate records, joined by “and”; a condition that tells them apart may be missing. Identical values can stand only once. Counter-ions that a name gives are not always drawn. ± gives the standard deviation of the averaged measurements. The list shows a part of the results. Part of the spread comes from offsets between plates or batches.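 Assay uses culture-activated primary human stellate myofibroblasts; lipid droplet recovery indicates inactivation. Measured: proportion of Hoechst-counted cells over a plate-specific Bodipy cutoff, duplicate wells, DMSO and nortriptyline as per-plate negative and positive controls. A hit scores, control-normalized, above the plate's top-tenth-percentile nortriptyline wells or ranks among its three best wells. Final well concentrations not reported.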

The subject of this assay is primary human hepatic stellate cells (donor 1). The assay is described as follows: percent Bodipy-positive cells; higher = more lipid droplet accumulation. The following applies: 48 h.
Where [1] appears, read: library stock concentration: 1 mM.
The mark [2] stands for this setting: library stock concentration: 3.33 mM.
Where [3] appears, read: library stock concentration: 10 mM.
[4] abbreviates: library stock concentration: 4.9 mM.

As for `CCCCC/C=C\C/C=C\CCCCCCCC(=O)O` [Linoleic acid], under setting [1], the “percent Bodipy-positive cells” value came out at 9.67 ± 4.5%.

`CCCCC/C=C\C/C=C\CCCCCCCC(=O)O` [Linoleic Acid (peroxide free)]: the “percent Bodipy-positive cells” value under setting [1] amounted to 6.03 ± 1%.

Regarding `Cc1cccc(N(C)C(=S)Oc2ccc3ccccc3c2)c1` [Tolnaftate], the “percent Bodipy-positive cells” value was found to be 33.6 ± 2.6%. Moreover, the “percent Bodipy-positive cells” value under setting [2] is 11.9 ± 0.27%. Besides, under setting [3], the “percent Bodipy-positive cells” value was 18.4% and 22.6%.

Turning to `C=CCNC1=C2C[C@@H](C)C[C@H](OC)[C@H](O)[C@@H](C)/C=C(\C)[C@H](OC(N)=O)[C@@H](OC)/C=C\C=C(/C)C(=O)NC(=CC1=O)C2=O` [17-AAG (Tanespimycin)], the “percent Bodipy-positive cells” value under setting [2] was found to be 73.2 ± 7.5%.

Take `N[C@@H](COP(=O)(O)O)C(=O)O`: the “percent Bodipy-positive cells” value under setting [3] amounted to 27.7 ± 8.1%.

As for `N[C@@H](COP(=O)(O)O)C(=O)O` [O-Phospho-L-serine], under setting [3], the “percent Bodipy-positive cells” value was determined as 20.9 ± 2.5%.

As for `CCCCc1oc2ccccc2c1C(=O)c1cc(I)c(OCCN(CC)CC)c(I)c1` [Amiodarone], the “percent Bodipy-positive cells” value (library stock concentration: 3.1 mM) came to 34.7 ± 1.9%.

For the molecule `CCCCc1oc2ccccc2c1C(=O)c1cc(I)c(OCCN(CC)CC)c(I)c1` [Amiodarone HCl], under setting [2], the “percent Bodipy-positive cells” value was 37.02 ± 0.32%.

Consider `CCCCc1oc2ccccc2c1C(=O)c1cc(I)c(OCCN(CC)CC)c(I)c1` [Amiodarone hydrochloride], for which the “percent Bodipy-positive cells” value was found to be 60.7 ± 3%. The “percent Bodipy-positive cells” value (library stock concentration: 2.9 mM) was 51.7 ± 6.2%.

Take `CCCCc1oc2ccccc2c1C(=O)c1cc(I)c(OCCN(CC)CC)c(I)c1`: the “percent Bodipy-positive cells” value runs as follows: (library stock concentration: 7.3 mM) 61.9 ± 33%; (library stock concentration: 9.5 mM) 88.2 ± 1.2%.

Consider `O=C(Nc1cccnc1)N1CCC(Cc2cccc(Oc3ccc(C(F)(F)F)cn3)c2)CC1`, for which the “percent Bodipy-positive cells” value under setting [2] was 10.3 ± 0.22% and the “percent Bodipy-positive cells” value under setting [3] worked out at 28.5 ± 1.8%.

As to `O=C(Nc1ccc([N+](=O)[O-])cc1Cl)c1cc(Cl)ccc1O` [Niclosamide], the “percent Bodipy-positive cells” value is 72.62 ± 0.38%.

Turning to `CCCCCCCC/C=C\CCCCCCCC(=O)NCC` [Oleoyl Ethyl Amide], the “percent Bodipy-positive cells” value under setting [1] was determined as 8.69 ± 2.4%.

For `CCOc1ccc(Cc2nccc3cc(OCC)c(OCC)cc23)cc1OCC` [Ethaverine hydrochloride], the “percent Bodipy-positive cells” value was 9.12 ± 0.57%. The “percent Bodipy-positive cells” value under setting [3] was 23.68 ± 0.057%.

Consider `Cc1cc(C)nc(NS(=O)(=O)c2ccc(NC(=S)NC(=O)COc3ccc(Br)cc3Cl)cc2)n1`, for which the “percent Bodipy-positive cells” value is 27.3 ± 2.5% under setting [2] and 31.9 ± 6% under setting [3].

For `CCCCCC(=O)CC[C@H]1[C@H](O)CC(=O)[C@@H]1C/C=C\CCCC(=O)O` [13,14-dihydro-15-keto Prostaglandin E2], the “percent Bodipy-positive cells” value under setting [1] worked out at 23.9 ± 12%.

For `CC(C)c1nc(CN(C)C(=O)N[C@@H](CCN2CCOCC2)C(=O)N[C@H](CC[C@H](Cc2ccccc2)NC(=O)OCc2cncs2)Cc2ccccc2)cs1` [Cobicistat (GS-9350)], the “percent Bodipy-positive cells” value by setting is: under setting [2], 25.1 ± 3.5%; under setting [3], 28.8 ± 7.3%.

As to `Nc1ccc(S(=O)(=O)O)cc1.Nc1ccc(S(=O)(=O)O)cc1.[Zn]` [Sulfanilate zinc], the “percent Bodipy-positive cells” value under setting [4] came to 8.07 ± 0.12%.

Take `C#C[C@]1(O)CC[C@H]2[C@@H]3CCC4=Cc5oncc5C[C@]4(C)[C@H]3CC[C@@]21C` [Danazol]: the “percent Bodipy-positive cells” value is 62 ± 4.8%. Further, where the note is “library stock concentration: 5.9 mM”, the “percent Bodipy-positive cells” value is 19.7% and 16.8%. Further, under setting [3], the “percent Bodipy-positive cells” value came to 13.7 ± 1.2%.

As for `C#C[C@]1(O)CC[C@H]2[C@@H]3CCC4=Cc5oncc5C[C@]4(C)[C@H]3CC[C@@]21C`, the “percent Bodipy-positive cells” value under setting [3] is 71.6 ± 4.7%.

Take `Cc1cccc(-c2nn3c(c2-c2ccnc4ccc(C(N)=O)cc24)CCC3)n1`: the “percent Bodipy-positive cells” value by setting is: under setting [2], 5.12 ± 2.9%; under setting [3], 13.6 ± 7.3%.

For `CCNC(=O)CCC/C=C\C[C@@H]1[C@@H](CC[C@@H](O)CCc2ccccc2)[C@H](O)C[C@@H]1O` [Latanoprost ethyl amide], under setting [1], the “percent Bodipy-positive cells” value came out at 19.5 ± 6%.

Take `CCO/C(O)=C1\C(C)=NC(c2ccccc2)=C(C(=O)OCc2ccc([N+](=O)[O-])cc2)C1C#Cc1ccccc1` (stereo unspecified): under setting [3], the “percent Bodipy-positive cells” value is 9.01 ± 1.1%.

For `COc1ccc(-c2cc(=O)c3c(OC)c(OC)c(OC)c(OC)c3o2)cc1` [Tangeretin], the “percent Bodipy-positive cells” value was 16.1 ± 0.67% under setting [2] and 26.2 ± 14% under setting [3].

In the case of `O=C(O)c1ccc(C=C2SC(=S)N(c3cccc(C(F)(F)F)c3)C2=O)cc1`, the “percent Bodipy-positive cells” value is 28.9 ± 5.4% under setting [2]; 22% and 9.38% under setting [3].

As for `CN1C(C(=O)Nc2ccccn2)=C(O)c2sc(Cl)cc2S1(=O)=O` [Lornoxicam], the “percent Bodipy-positive cells” value by setting is: under setting [2], 13.4 ± 2.9%; under setting [3], 13.2 ± 4.6%.

On to `CN1C(C(=O)Nc2ccccn2)=C(O)c2sc(Cl)cc2S1(=O)=O`, for which the “percent Bodipy-positive cells” value under setting [3] turned out to be 27.6 ± 4.8%.

Take `CC12CC3CC(C)(C1)CC(N)(C3)C2` [Memantine HCl]: the “percent Bodipy-positive cells” value under setting [2] worked out at 18.8 ± 8.6% and the “percent Bodipy-positive cells” value under setting [3] stood at 53.8 ± 5.6%.

Consider `CC12CC3CC(C)(C1)CC(N)(C3)C2`, for which the “percent Bodipy-positive cells” value under setting [3] amounted to 65.4 ± 1.5%.

Turning to `CC12CC3CC(C)(C1)CC(N)(C3)C2` [Memantine Hydrochloride], the “percent Bodipy-positive cells” value was 47.5 ± 11%.

Turning to `CC12CC3CC(C)(C1)CC(N)(C3)C2` [Memantine hydrochloride], the “percent Bodipy-positive cells” value (library stock concentration: 9.3 mM) came to 69.1 ± 0.94%.

Consider `Cc1ccc(CNc2ncnc3ccc(-c4ccc(CO)o4)cc23)o1`, for which the “percent Bodipy-positive cells” value under setting [2] worked out at 32.5 ± 11% and the “percent Bodipy-positive cells” value under setting [3] stood at 35.3 ± 17%.

With `CCC[C@@H]1C[C@@H](C(=O)N[C@@H]([C@H]2O[C@H](SC)[C@H](O)[C@@H](O)[C@H]2O)[C@@H](C)O)N(C)C1` [Lincomycin HCl], the “percent Bodipy-positive cells” value stood at 7.53 ± 2.7% under setting [2] and 14.7 ± 2.2% under setting [3].

As for `CCC[C@@H]1C[C@@H](C(=O)N[C@@H]([C@H]2O[C@H](SC)[C@H](O)[C@@H](O)[C@H]2O)[C@@H](C)O)N(C)C1` [Lincomycin hydrochloride], the “percent Bodipy-positive cells” value stood at 25.2 ± 8.8%. Also, the “percent Bodipy-positive cells” value (library stock concentration: 4.5 mM) is 2.96 ± 0.12%. Moreover, the “percent Bodipy-positive cells” value under setting [3] came out at 15.5 ± 2.8%.

As to `CCC[C@@H]1C[C@@H](C(=O)N[C@@H]([C@H]2O[C@H](SC)[C@H](O)[C@@H](O)[C@H]2O)[C@@H](C)O)N(C)C1` [Lincomycin], under setting [4], the “percent Bodipy-positive cells” value turned out to be 9.58 ± 3.8%.

As to `N#Cc1c(Oc2ccc(F)c(NC(=O)Cc3cccc(C(F)(F)F)c3)c2)ccc2nc(NC(=O)C3CC3)sc12`, the “percent Bodipy-positive cells” value by setting is: (library stock concentration: 80 uM) 9.3 ± 2.7%; (library stock concentration: 400 uM) 7.87 ± 1.1%; (library stock concentration: 2 mM) 10.1 ± 1.4%; under setting [2], 30 ± 1.4%.

Consider `CCCCC(C)(C)[C@H](O)/C=C/[C@@H]1[C@@H](C/C=C\CCCC(=O)O)[C@@H](O)C[C@H]1O` [16,16-dimethyl Prostaglandin F2.alpha.], for which the “percent Bodipy-positive cells” value under setting [1] was found to be 17.7 ± 2.7%.

As to `CN1CCCN=C1/C=C/c1cccs1` [Pyrantel tartrate], the “percent Bodipy-positive cells” value was 30 ± 4.3%.

Turning to `CN1CCCN=C1/C=C/c1cccs1` [Pyrantel pamoate], under setting [3], the “percent Bodipy-positive cells” value is 5.77 ± 0.7%.

As for `CO[C@H]1C[C@@H]2CC[C@@H](C)[C@@](O)(O2)C(=O)C(=O)N2CCCC[C@H]2C(=O)O[C@H]([C@H](C)C[C@@H]2CC[C@@H](OC(=O)C(C)(CO)CO)[C@H](OC)C2)CC(=O)[C@H](C)/C=C(\C)[C@@H](O)[C@@H](OC)C(=O)[C@H](C)C[C@H](C)/C=C/C=C/C=C/1C`, the “percent Bodipy-positive cells” value reads like this: under setting [2], 6 ± 1.7%; under setting [3], 10.9 ± 1.6%.

Consider `CCCCC(CC)COc1ccc(-c2nc(-c3ccc(OC)cc3)nc(-c3ccc(OCC(CC)CCCC)cc3O)n2)c(O)c1` (stereo unspecified), for which the “percent Bodipy-positive cells” value under setting [3] was 43.2 ± 7.9%.

Take `CC/C=C\C/C=C\C/C=C\C/C=C\C/C=C\C/C=C\CCC(=O)O` [Docosahexaenoic acid(22:6 n-3)]: the “percent Bodipy-positive cells” value under setting [1] amounted to 12.7 ± 7.5%.

`CC/C=C\C/C=C\C/C=C\C/C=C\C/C=C\C/C=C\CCC(=O)O` [Docosahexaenoic Acid]: under setting [1], the “percent Bodipy-positive cells” value worked out at 7.04 ± 1.8%.
